At least one compound was matched to its structure with a doubt left.
Test: Stability of arginine and potassium bumetanide salts over four weeks
Assay type: physicochemical
Protocol: The stability of the arginine and potassium bumetanide salts was monitored over a four week period with storage at either 2-8° C. or 25° C. for that time period. The bumetanide salt solutions were evaluated on the basis of pH, concentration of bumetanide in solution, the percent assay recovery and the presence of an impurity (see Tables 17 and 18).

CCCCNc1cc(C(=O)[O-])cc(S(N)(=O)=O)c1Oc1ccccc1.[K+] [potassium bumetanide salt]
Recovery (1 week at 5° C.): 101.5%
Recovery (1 week at 25° C.): 100.0%
Recovery (2 weeks at 5° C.): 97.4%
Recovery (2 weeks at 25° C.): 97.2%
Recovery (4 weeks at 5° C.): 97.9%
Recovery (4 weeks at 25° C.): 98.6%
